Measured values from PubChem BioAssay AID1794845 (National Center for Advancing Translational Sciences (NCATS), 2023).
Fewer than 10 of roughly 6,900 compounds were called active. Calls come from the whole dose curve; as a rule, active = well fitted curve in the direction sought with a large enough effect; inconclusive = small, poorly fitted or top-dose-only effect, or another doubt; inactive = no such curve, though single readings can be large or run the other way. This is one part of the list.

Amino acid sequences for entries named in this document (tags omitted). A change or cut given only in a name is not applied to a line headed by its entry.
UniProt C7C422: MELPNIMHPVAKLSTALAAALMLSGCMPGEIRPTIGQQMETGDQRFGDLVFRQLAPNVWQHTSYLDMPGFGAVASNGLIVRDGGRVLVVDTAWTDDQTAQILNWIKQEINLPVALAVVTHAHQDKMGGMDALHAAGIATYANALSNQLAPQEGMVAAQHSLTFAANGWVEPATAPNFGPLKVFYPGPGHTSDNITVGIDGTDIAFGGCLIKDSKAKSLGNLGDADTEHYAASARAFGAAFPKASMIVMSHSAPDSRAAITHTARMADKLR

Biological target: Metallo-beta-lactamase type 2 (Klebsiella pneumoniae) (UniProt C7C422)
Experiment: qHTS to identify inhibitors of the New Delhi Metallo-beta-lactamase (NDM): primary screen against the NCATS Gemini Collection; note: % of control where 0% means no effect
Settings: NDM-1 enzyme, meropenem hydrolysis, absorbance 300 nm; at 38.4 µM (top of the series) unless noted
Method in brief: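 NDM-1 at 2 nM final in 50 mM HEPES pH 7.0, 1 uM ZnSO4, 0.01% Tween20, preincubated >30 min with compound. Meropenem 50 uM final added; absorbance at 300 nm after 30 min.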

| Structure (SMILES) | activity % (negative = inhibition) |
| --- | --- |
| COc1ccc(NC(=O)CCc2ccnc(N3CCCC3)c2)c(OC)c1 | inactive: 38.1% |
| O=C(NC[C@H]1Cn2ccnc2CO1)C1CCCC1 | inactive: 0.0357% [at 77.1 µM] |
| O=C([C@@H]1C[C@@H]2C=C[C@H]1C2)N1CCc2c(nc(-c3cccnc3)[nH]c2=O)C1 | inactive: 3.7% |
| Cc1noc(C)c1-c1nccc2c(=O)cc(-c3ccccn3)oc12 | inactive: 51.3% [at 57.5 µM] |
| COc1ccc(S(N)(=O)=O)cc1C(=O)N1CCC2(CN(C)C(=O)O2)C1 (stereo not given) | inactive: 9.66% |
| O=C(C1CCCNC1)N1CCCn2cc(-c3ccccc3F)nc21 (stereo not given) | inactive: 6.66% |
| CCNC(=O)N[C@H]1[C@H](O)[C@H](O)C[C@@H]1c1cncnc1 | inactive: 4.61% [at 77.1 µM] |
| CCCOc1nccnc1NC1CCN(C(=O)c2cccnc2)CC1 | inactive: 4.4% |
| CC(C)c1nc(N2CCOCC2)ncc1C(=O)O | inactive: 0.227% |
| N#Cc1ccc(S(=O)(=O)N2CCc3n[nH]c(=O)n3CC2)cc1 | inactive: 43.8% |
| CS(=O)(=O)N1CC(F)(F)C[C@H]1c1nc(C2CC2)no1 | inactive: 8.43% |
| CCCS(=O)(=O)N1CCc2nn(CC3CC3)c(=O)n2CC1 | inactive: -1.69% |
| Cn1cc(S(=O)(=O)NC2CC(c3cc(N4CCC(O)C4)ncn3)C2)cn1 (stereo not given) | inactive: 0.667% |
| CN1CCOc2c(C(=O)NCc3cnn(C)c3)cc(-c3ccc([S+](C)(=O)[O-])cc3)cc21 | inactive: 11.8% [at 57.5 µM] |
| Cc1ccc(CN2CCCc3nc(C)nc(-c4ccc(O)cc4)c3C2)cc1 | inactive: 0.551% |
| Cc1ncoc1C(=O)N1CCC2(CC1)CC(N(Cc1ccccc1)C1CC1)CCO2 (stereo not given) | inactive: -3.52% |
| O=C(NCCCc1ccccc1F)[C@H]1CCC[C@@H](O)C1 | inactive: -0.311% |
| CCCN(CC1CC1)C(=O)[C@@H]1COCC(=O)N1Cc1ccccc1 | inactive: 11.1% |
| CC1(CNCc2ccccc2)COc2ccc(C(=O)NCc3cccs3)cc2N1 (stereo not given) | inactive: 9.32% [at 57.5 µM] |
| COCc1nnc2n1CCC(NC(=O)Cc1c[nH]c3ccccc13)CC2 (stereo not given) | inactive: 0.638% |
| N#Cc1cccnc1-c1cccc(C(=O)NCCN[S+](=O)([O-])c2cccc(C(F)(F)F)c2)c1 | inactive: -0.199% |
| O=C(N[C@@H]1CCN(C(=O)c2n[nH]c3ccccc23)C[C@H]1O)c1cccnc1 | inactive: 2.74% |

| Structure (SMILES) | activity % (negative = inhibition) |
| --- | --- |
| O=C(C[C@@H]1CCNC[C@@H]1Cc1cc(CSc2ccccc2)on1)N1CCN(c2ccccc2)CC1 | inactive: 2.61% |
| CO[C@H]1C(=O)N(C2CCN(C(=O)c3ccnn3C)CC2)[C@H]1c1ccncc1 | inactive: 2% |
| CC(C)(O)CCc1ccc(CN2CCN([C@H]3CCCC[C@@H]3O)CC2)cc1 | inactive: -12.4% |
| Nc1nc2c(c(N3CC[C@@H](O)C3)n1)CCN(C(=O)[C@H]1CCCO1)CC2 | inactive: 18.3% |
| COc1cccc(Nc2cccc(CN3CCCC(C)(NC(C)=O)C3)c2)c1 (stereo not given) | inactive: 15.3% [at 57.5 µM] |
| O[C@@H]1C[C@@H](c2nc(-c3cnccn3)no2)N(Cc2cccs2)C1 | inactive: 3.47% [at 57.5 µM] |
| Cc1ccccc1CNC(=O)c1cc2cn(C(C)C)cc2s1 | inactive: -1.18% |
| O=c1c2nc(NCCOc3ccccc3)ccc2ncn1Cc1ccccc1 | inactive: 5.47% [at 57.5 µM] |
| CCC[C@@H]1CN(C(=O)c2ccccc2-c2ccccc2F)C[C@H]1NC(C)=O | inactive: -2.99% |
| Cc1cc(C)nc(N2C[C@H]3OC(=O)N(CCc4cccc(Cl)c4)[C@H]3C2)n1 | inactive: 4.92% |
| NC(=O)[C@H](Cc1ccc(O)cc1)NC(=O)[C@@]1(O)C[C@@H](O)[C@H](O)[C@@H](NC(=O)c2ccc(F)c(Cl)c2)C1 | inactive: 8.28% |
| CCN(CC)C(=O)[C@@H]1CCC[C@@H](NCc2cccc(OC)c2)CN(C)C(=O)C1 | inactive: -4.84% [at 57.5 µM] |
| Cc1onc(C(=O)NCCc2noc(-c3ccncc3)n2)c1Cn1cc(Cl)cn1 | inactive: -2.99% |
| NC1CC(c2cc(N3CCN(c4nnc(C(F)(F)F)s4)CC3)ncn2)C1 (stereo not given) | inactive: 9.09% |
| CCNC(=O)[C@@H]1CCCN1C(C)(C)C(=O)NC | inactive: 26.6% [at 77.1 µM] |
| CCc1nccc(CN2CCCC(CC3CC3)(C(=O)O)C2)n1 (stereo not given) | inactive: 11.6% |
| COCCN1CCCCCC(O)c2cc(C(=O)NCc3ccc(F)cc3)ccc21 (stereo not given) | inactive: -7.68% |
| CC(C)n1cc(CN2CCC(CO)(Cc3ccccc3Cl)CC2)cn1 | inactive: -1.51% |
| O=C(Cc1cccc(F)c1)NCc1nnc2cc(-c3nc(C4CC4)no3)ccn12 | inactive: -0.331% |
| O=C(NC[C@H]1OC[C@@H](N(Cc2cnc[nH]2)Cc2cnc[nH]2)[C@@H]1O)C1CCCC1 | inactive: 113% [at 57.5 µM] |
| COc1ccccc1-n1cc(C(=O)N[C@H](c2cnn(C)c2)C2CC(O)C2)cn1 (stereo not given in full) | inactive: 2.8% |
| Cc1nc(C(C)C)sc1C(=O)N1C[C@@H](C)[C@](O)(C2CCC2)C1 | inactive: 0.164% |

| Structure (SMILES) | activity % (negative = inhibition) |
| --- | --- |
| COc1ccc(N2CC(COc3ccccc3)Oc3nc(C)ccc3C2=O)cc1 (stereo not given) | inactive: -1.07% [at 16.1 µM] |
| COc1ccc(-c2cccc(C(=O)NC3CCOCC3)c2)nn1 | inactive: 15.2% [at 57.5 µM] |
| CN(C)[C@@H]1C[C@@H](CO)N(C(=O)c2csc3nc(-c4ccccc4Cl)cn23)C1 | inactive: 14.8% |
| COCCN1CCC(N2CCN(C(=O)c3ccsc3)CC2)C1=O (stereo not given) | inactive: 17.5% |
| O=C(c1ccc(F)cc1)N1CCCCCC1c1nnc(-c2ccccc2)o1 (stereo not given) | inactive: 0.811% |
| CCc1ccc(N2CC(c3noc(-c4sccc4C)n3)CC2=O)cc1 (stereo not given) | inactive: -0.277% |
| O=C(OCc1ccccc1)N1CCOCC12CCN(Cc1c[nH]c3ccccc13)CC2 | inactive: 1.9% [at 57.5 µM] |
| Cc1cccc(CN2CCCC(C(=O)Nc3cccc(-n4cccn4)c3)C2)n1 (stereo not given) | inactive: 0.861% |
| COc1ccc(CCc2nc3nccc(-c4ccncc4)n3n2)cc1 | inactive: 7.82% |
| CCNC(=O)O[C@H]1COCCN(c2nc3ccccc3o2)C1 | inactive: 0.369% [at 57.5 µM] |
| COc1ccc(S(=O)(=O)NC[C@H]2Cn3c(-c4ccc(Cl)cc4)cnc3CO2)cc1 | inactive: 7.08% [at 57.5 µM] |
| O=C(CCn1cncn1)N1CCC2(CCC(=O)N(CCc3ccncc3)C2)CC1 | inactive: 1.56% |
| CC(=O)N1CCC(C(=O)N2CCCC(c3nc4ncccc4[nH]3)C2)CC1 (stereo not given) | inactive: 1.14% |
| O=C(CCc1c[nH]c2ccccc12)NC1CCN(c2ccc(=O)[nH]n2)CC1 | inactive: 12.2% |
| O=C1CC(c2noc(Cc3ccc(F)cc3)n2)CN1c1ccc(F)cc1 (stereo not given) | inactive: -1.31% |
| COc1ccc(CNc2cc3c(cn2)CN(C)CCN3)cc1OC | inactive: 26.7% [at 57.5 µM] |
| COCCN1Cc2nc(NCc3ccccc3)ccc2OCC1=O | inactive: 24.4% [at 57.5 µM] |
| COc1ccc(CC(=O)N2Cc3ccccc3CC23CCCN(C(=O)CN)C3)cc1 (stereo not given) | inactive: -8.97% |
| COC[C@@H]1CN(c2ncccn2)C[C@H]1C(=O)NCc1ccccc1OC | inactive: 0.757% |
| Cc1c(CC(=O)N(C)C(C)C)c2c(n1Cc1ccccc1F)CCCC2=O | inactive: 67% |
| COc1ccc(-c2nc(C3CC(=O)N(c4ccc(C)cc4)C3)no2)cn1 (stereo not given) | inactive: -0.208% |
| O=C(CC1=CCCCC1)N1CC(F)(F)C[C@H]1c1nc(C2CC2)no1 | inactive: -9.55% |

| Structure (SMILES) | activity % (negative = inhibition) |
| --- | --- |
| Cc1cccc2[nH]c(CN(C)C(=O)c3ccc(CCC(C)(C)O)cc3)nc12 | inactive: -1.02% |
| O=C(N[C@H]1CCOC[C@H]1C1CCOCC1)c1ccoc1 | inactive: -1.18% |
| COc1ccc(C(=O)N2CCC(C3CCN(S(C)(=O)=O)CC3)C2)cc1OC (stereo not given) | inactive: 0.0866% |
| O=C(NC1CCCCCC1)c1cc(-c2cc(Cl)cc(Cl)c2)c2nncn2n1 | inactive: 19.8% |
| Cc1cnc(-c2ccccc2)n1C1CCN(C(=O)c2ccco2)CC1 | inactive: 7.9% |
| Cc1cnc(C(=O)N2CCCCCNC(=O)[C@@H]3CCC[C@@H]32)cn1 | inactive: 10% |
| CN(Cc1ccccc1CN1CCCC1)C(=O)C1CC2(CCNCC2)CN1C (stereo not given) | inactive: -6.44% |
| CCN1CC(c2ccccc2)CC2(CCN(C(=O)c3ccon3)CC2)C1 (stereo not given) | inactive: -4.38% |
| Cc1cc(C(=O)N2CCCC(C(=O)Nc3cccc(-c4cc5ccccc5[nH]4)c3)C2)nn1C (stereo not given) | inactive: 24.3% |
| COC(=O)N1CCCCC12Cc1ccccc1NC2=O (stereo not given) | inactive: 9.48% [at 57.5 µM] |
| O=C(C1CCCN(C2CCN(c3ncccn3)CC2)C1)N1CCOCC1 (stereo not given) | inactive: 10.9% |
| Cn1ncc2c(C(=O)N3CCC(C#N)CC3)cc(-c3cc(Cl)cc(Cl)c3)nc21 | inactive: 25.5% |
| COc1ccccc1-c1cccc(CN2CCC(NC(C)=O)CC2)c1 | inactive: 11% |
| Cc1cnc(CC2CCN(C(=O)Nc3ccc4c(c3)OCCO4)C2)n1C1CC1 (stereo not given) | inactive: 2.21% |
| Cc1cc(S(=O)(=O)N2CCN(C3CCN(Cc4ccccn4)C3=O)CC2)ccc1Cl (stereo not given) | inactive: 1.41% |
| COc1cccc(CC(=O)N2CCC(CC3CC3)(NC(=O)c3ccccc3)CC2)c1 | inactive: 0.0723% |
| Cc1ccc(-c2noc(CCCC(=O)N3CCC(CCOc4ccccc4F)C3)n2)cc1 (stereo not given) | inactive: 1.39% |
| O=C([C@@H]1C[C@H](F)CN1C(=O)c1ccc(Cl)cc1)N1CCCCC1 | inactive: -1.46% |
| CC(=O)N1CC2(CCN(C3CCCCC3)CC2)Cc2ccccc21 | inactive: -3.71% |

Taken from the listing, 4 compounds:

| Structure (SMILES) | activity % (negative = inhibition) |
| --- | --- |
| Cc1cc(C(=O)N2CCCC(C(=O)Nc3cccc(-c4cc5ccccc5[nH]4)c3)C2)nn1C (stereo not given) | inactive: 24.3% |
| COC(=O)N1CCCCC12Cc1ccccc1NC2=O (stereo not given) | inactive: 9.48% [at 57.5 µM] |
| O=C(C1CCCN(C2CCN(c3ncccn3)CC2)C1)N1CCOCC1 (stereo not given) | inactive: 10.9% |
| Cn1ncc2c(C(=O)N3CCC(C#N)CC3)cc(-c3cc(Cl)cc(Cl)c3)nc21 | inactive: 25.5% |
